Measurements reported in PubChem BioAssay AID1259308 (NCATS, 2017)
The whole screen tested about 59,000 reagents; this is a random part of them. In the full data, about 1,510 (2.6%) are marked active. 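Calls use total luciferase alone and ignore viability, so some active siRNAs may act by altering cell number.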 Entries without a mark were called inactive. Reagents against one gene are numbered here.

- Aim: 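Genes whose loss raises luciferase production in HEK293 cells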 (primary screen)
- Cells: human HEK293 embryonic kidney cells stably expressing firefly luciferase (HEK-CMV-Luc2-Hygro)
- Reagent: single siRNA against human genes, 0.8 pmol siRNA per well
- Timing: 72 h
- Read-out: 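Reporter luminescence and viable-cell signal on separate replicate plates, given as percent of non-targeting control and median/MAD z-scores, plus per-cell luciferase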
- Scale: total luciferase, z-score and total luciferase, % of control: higher = more reporter protein produced; luciferase per cell, z-score: higher = more reporter output per viable cell; viable cells, % of control: higher = more viable cells
- Call rule: 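An siRNA counts as active if its total luciferase robust z-score exceeds 3; genes with two or more such siRNAs out of three were retested with fresh siRNAs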
- Meaning of the calls: active = raised luciferase; inactive = no rise

The opening 5 entries as a preview:
gene knocked down	reagent	total luciferase, z-score	total luciferase, % of control	luciferase per cell, z-score	viable cells, % of control
LIN28A (GeneID 79727)	1	0.906	99.9	1.15	82.5
LIN28A (GeneID 79727)	2	0.21	86.1	0.402	86.5
LIN28A (GeneID 79727)	3	0.502	91.9	0.306	94.7
TTC24 (GeneID 164118)	1	-1.51	51.8	-1.83	93.7
TTC24 (GeneID 164118)	2	-0.26	76.7	-0.57	99.6

The list itself, repeating the preview:
gene knocked down	reagent	total luciferase, z-score	total luciferase, % of control	luciferase per cell, z-score	viable cells, % of control
LIN28A (GeneID 79727)	1	0.906	99.9	1.15	82.5
LIN28A (GeneID 79727)	2	0.21	86.1	0.402	86.5
LIN28A (GeneID 79727)	3	0.502	91.9	0.306	94.7
TTC24 (GeneID 164118)	1	-1.51	51.8	-1.83	93.7
TTC24 (GeneID 164118)	2	-0.26	76.7	-0.57	99.6
TTC24 (GeneID 164118)	3	-0.0744	80.4	0.876	71.3
RSRP1 (GeneID 57035)	1	0.989	102	0.87	90.3
RSRP1 (GeneID 57035)	2	-0.917	63.7	-0.74	86.4
RSRP1 (GeneID 57035)	3	1.95	121	1.47	91.7
GSX2 (GeneID 170825)	1	-0.618	69.6	-0.721	94
GSX2 (GeneID 170825)	2	-0.248	77	-0.375	94.9
GSX2 (GeneID 170825)	3	-2.05	41.2	-2.4	86.6
CHGA (GeneID 1113)	1	-0.102	79.8	-0.538	103
CHGA (GeneID 1113)	2	-0.576	70.4	-1.32	112
CHGA (GeneID 1113)	3	0.537	92.6	-0.162	108
LINC02145 (GeneID 401172)	1	0.141	84.7	0.468	83.7
LINC02145 (GeneID 401172)	2	0.116	84.2	0.461	83.3
LINC02145 (GeneID 401172)	3	-0.0385	81.1	-0.547	105
FBXO10 (GeneID 26267)	1	0.413	90.1	0.277	93.6
FBXO10 (GeneID 26267)	2	0.595	93.7	0.39	94.5
FBXO10 (GeneID 26267)	3	-0.875	64.5	-1.5	107
MCF2L2 (GeneID 23101)	1	-0.687	68.2	-0.957	98.1
MCF2L2 (GeneID 23101)	2	-0.614	69.7	-0.905	98.8
MCF2L2 (GeneID 23101)	3	-0.0387	81.1	2.81	43.2
MNT (GeneID 4335)	1	-0.439	73.2	1.1	61.2
MNT (GeneID 4335)	2	-0.123	79.4	-0.156	92.5
MNT (GeneID 4335)	3	0.458	91	0.652	85.6
GRM7 (GeneID 2917)	1	0.603	93.9	0.149	101
GRM7 (GeneID 2917)	2	-1.04	61.1	-1.52	102
GRM7 (GeneID 2917)	3	-0.906	63.9	-0.391	79.1
VILL (GeneID 50853)	1	0.427	90.4	0.0317	100
VILL (GeneID 50853)	2	0.34	88.6	0.166	94.8
VILL (GeneID 50853)	3	0.458	91	-0.0263	102
NOL10 (GeneID 79954)	1	-1.37	54.5	-0.89	77.1
NOL10 (GeneID 79954)	2	-0.335	75.2	-0.589	98.2
NOL10 (GeneID 79954)	3	-0.574	70.5	-0.97	102
IL22RA1 (GeneID 58985)	1	0.231	86.5	0.031	95.9
IL22RA1 (GeneID 58985)	2	-0.757	66.8	-0.759	91.2
IL22RA1 (GeneID 58985)	3	0.456	90.9	0.518	88.7
RAD54L (GeneID 8438)	1	-0.139	79.1	-0.911	112
RAD54L (GeneID 8438)	2	-0.52	71.5	-1	104
RAD54L (GeneID 8438)	3	0.103	83.9	0.385	84.8
GLB1L3 (GeneID 112937)	1	0.317	88.2	0.42	88.2
GLB1L3 (GeneID 112937)	2	-0.0989	79.9	-0.29	96.4
GLB1L3 (GeneID 112937)	3	-0.883	64.3	-1.14	97.1
DEF6 (GeneID 50619)	1	1.8	118	1.4	91
DEF6 (GeneID 50619)	2	-0.815	65.7	0.121	71.1
DEF6 (GeneID 50619)	3	-1.15	59.1	-0.352	72.4
TMEM39A (GeneID 55254)	1	-0.118	79.5	0.0136	88.6
TMEM39A (GeneID 55254)	2	1.87	119	1.12	99
TMEM39A (GeneID 55254)	3	0.329	88.4	-0.132	102
CELA2B (GeneID 51032)	1	-0.0327	81.2	-0.251	97
CELA2B (GeneID 51032)	2	-2.18	38.5	-2.3	78.8
CELA2B (GeneID 51032)	3	0.908	100	1.24	80.5
CDC42EP2 (GeneID 10435)	1	0.0244	82.4	-0.275	99
CDC42EP2 (GeneID 10435)	2	-1.52	51.6	-1.46	84.6
CDC42EP2 (GeneID 10435)	3	-2.06	41	-1.11	61.4
